Some of the results follow. Residues, ends and D or L forms follow the SMILES beside them. *: point of attachment. Cbz = O=C(OCc1ccccc1)*
Legend:
Experiment in all cases: log2 fold change, soluble protein after heating vs DMSO (PISA); higher = thermal stabilisation; K562 cells, 10 uM, 30 min; active = over 0.2 and 3.5 SD of the protein, either way, in both replicates (recomputed)
IRAK-1-4 Inhibitor I = compound: C1COCCN1CCN2C3=CC=CC=C3N=C2NC(=O)C4=CC(=CC=C4)[N+](=O)[O-] [IRAK-1-4 Inhibitor I]
Method in brief: (§1)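 K562 cells at 2×10^6 cells/mL were given 10 μM compound for 30 min. Aliquots then went through 3 min of heating across 48°C-58°C, were pooled, and were extracted in PBS with 0.5% NP-40 at 4°C, and the supernatant after 21,000xg for 90 min was quantified by TMTpro 16plex LC-MS/MS with channel sums equalised. Thermal stability relative to control samples, from duplicates, is given as log2 fold change.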

Chains of the proteins cited; added tags and fusions are not shown. Lines headed by an entry give the natural chain unless they say otherwise; changes in a name come on top.
UniProt Q9BQ69: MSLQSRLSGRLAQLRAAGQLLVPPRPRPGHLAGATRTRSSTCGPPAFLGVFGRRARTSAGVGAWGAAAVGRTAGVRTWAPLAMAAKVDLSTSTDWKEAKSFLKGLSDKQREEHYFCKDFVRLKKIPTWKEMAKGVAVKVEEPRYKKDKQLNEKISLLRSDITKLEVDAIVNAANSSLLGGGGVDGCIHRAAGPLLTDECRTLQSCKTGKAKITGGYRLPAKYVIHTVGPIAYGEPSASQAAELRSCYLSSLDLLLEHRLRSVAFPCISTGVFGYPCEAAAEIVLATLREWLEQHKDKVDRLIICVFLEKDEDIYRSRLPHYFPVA
UniProt Q8IW41: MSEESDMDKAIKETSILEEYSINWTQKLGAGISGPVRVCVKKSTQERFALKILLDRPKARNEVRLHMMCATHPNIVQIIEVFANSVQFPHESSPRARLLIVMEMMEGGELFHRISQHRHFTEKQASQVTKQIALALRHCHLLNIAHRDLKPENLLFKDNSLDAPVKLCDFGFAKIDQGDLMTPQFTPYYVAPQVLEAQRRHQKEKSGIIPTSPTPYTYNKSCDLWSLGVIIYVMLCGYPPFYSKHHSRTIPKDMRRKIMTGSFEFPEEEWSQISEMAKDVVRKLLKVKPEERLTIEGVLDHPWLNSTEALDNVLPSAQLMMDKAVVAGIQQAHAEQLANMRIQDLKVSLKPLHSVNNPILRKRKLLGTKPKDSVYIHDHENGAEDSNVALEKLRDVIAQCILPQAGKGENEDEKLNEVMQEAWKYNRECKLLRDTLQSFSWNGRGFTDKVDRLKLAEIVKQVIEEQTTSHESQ
UniProt Q9Y4K4: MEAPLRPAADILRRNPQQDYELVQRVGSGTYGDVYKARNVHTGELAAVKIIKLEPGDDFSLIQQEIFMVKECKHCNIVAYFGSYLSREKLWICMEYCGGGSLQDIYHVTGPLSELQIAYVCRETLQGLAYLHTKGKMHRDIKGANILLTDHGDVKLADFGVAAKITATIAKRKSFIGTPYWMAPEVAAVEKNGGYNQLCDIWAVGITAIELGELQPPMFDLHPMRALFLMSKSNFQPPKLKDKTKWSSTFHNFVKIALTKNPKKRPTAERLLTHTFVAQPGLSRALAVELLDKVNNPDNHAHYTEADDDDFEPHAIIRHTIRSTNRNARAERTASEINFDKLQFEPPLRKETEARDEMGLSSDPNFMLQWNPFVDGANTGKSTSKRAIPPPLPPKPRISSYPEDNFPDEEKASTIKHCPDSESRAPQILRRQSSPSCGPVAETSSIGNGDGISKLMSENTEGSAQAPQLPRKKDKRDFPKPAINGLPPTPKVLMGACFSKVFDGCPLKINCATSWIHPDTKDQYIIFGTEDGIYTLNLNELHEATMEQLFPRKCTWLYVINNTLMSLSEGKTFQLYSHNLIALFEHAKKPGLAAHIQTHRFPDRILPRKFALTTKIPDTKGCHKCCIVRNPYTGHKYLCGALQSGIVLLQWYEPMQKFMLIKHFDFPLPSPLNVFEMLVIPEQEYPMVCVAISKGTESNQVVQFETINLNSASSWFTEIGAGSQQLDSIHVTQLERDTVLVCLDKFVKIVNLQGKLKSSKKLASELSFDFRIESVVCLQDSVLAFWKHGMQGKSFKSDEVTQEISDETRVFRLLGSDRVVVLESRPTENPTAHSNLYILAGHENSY
UniProt Q86V48: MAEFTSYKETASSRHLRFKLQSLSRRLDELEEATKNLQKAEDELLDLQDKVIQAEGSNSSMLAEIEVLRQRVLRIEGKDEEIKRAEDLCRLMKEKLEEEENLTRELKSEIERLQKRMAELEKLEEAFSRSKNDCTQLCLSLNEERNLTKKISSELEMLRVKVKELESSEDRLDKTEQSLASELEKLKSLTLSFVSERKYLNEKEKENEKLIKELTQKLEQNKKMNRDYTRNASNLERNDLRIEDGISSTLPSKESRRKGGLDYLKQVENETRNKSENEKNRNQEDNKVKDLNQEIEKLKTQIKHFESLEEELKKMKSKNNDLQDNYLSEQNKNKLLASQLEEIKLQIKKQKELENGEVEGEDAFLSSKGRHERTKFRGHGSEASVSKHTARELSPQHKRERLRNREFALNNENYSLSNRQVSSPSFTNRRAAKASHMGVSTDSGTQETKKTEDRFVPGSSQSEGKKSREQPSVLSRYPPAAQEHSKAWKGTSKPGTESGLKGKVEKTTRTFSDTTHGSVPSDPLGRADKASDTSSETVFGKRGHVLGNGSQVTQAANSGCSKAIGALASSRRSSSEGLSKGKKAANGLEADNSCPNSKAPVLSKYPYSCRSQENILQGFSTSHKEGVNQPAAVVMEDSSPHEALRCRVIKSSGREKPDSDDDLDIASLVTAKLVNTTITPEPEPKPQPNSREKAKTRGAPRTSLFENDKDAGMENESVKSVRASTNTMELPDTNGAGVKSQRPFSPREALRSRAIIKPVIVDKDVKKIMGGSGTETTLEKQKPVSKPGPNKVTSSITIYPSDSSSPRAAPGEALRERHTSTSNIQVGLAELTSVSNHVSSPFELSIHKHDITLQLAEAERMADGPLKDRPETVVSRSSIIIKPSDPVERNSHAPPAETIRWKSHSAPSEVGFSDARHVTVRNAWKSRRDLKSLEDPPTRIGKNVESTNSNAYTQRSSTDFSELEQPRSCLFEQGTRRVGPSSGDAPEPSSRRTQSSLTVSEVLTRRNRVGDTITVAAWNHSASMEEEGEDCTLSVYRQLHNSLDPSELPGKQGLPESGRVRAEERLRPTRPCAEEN
UniProt P45983: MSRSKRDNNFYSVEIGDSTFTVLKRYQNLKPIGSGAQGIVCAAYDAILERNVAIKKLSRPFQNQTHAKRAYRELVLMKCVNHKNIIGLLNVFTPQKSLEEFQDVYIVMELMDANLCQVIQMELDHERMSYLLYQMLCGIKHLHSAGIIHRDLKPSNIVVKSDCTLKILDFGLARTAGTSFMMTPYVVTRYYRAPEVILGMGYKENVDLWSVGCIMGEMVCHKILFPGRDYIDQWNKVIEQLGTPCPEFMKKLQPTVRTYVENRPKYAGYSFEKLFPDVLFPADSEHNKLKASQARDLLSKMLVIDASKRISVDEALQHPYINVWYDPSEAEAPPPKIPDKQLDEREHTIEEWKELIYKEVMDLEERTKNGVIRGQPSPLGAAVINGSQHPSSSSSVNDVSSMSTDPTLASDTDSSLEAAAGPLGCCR
UniProt Q7L1W4: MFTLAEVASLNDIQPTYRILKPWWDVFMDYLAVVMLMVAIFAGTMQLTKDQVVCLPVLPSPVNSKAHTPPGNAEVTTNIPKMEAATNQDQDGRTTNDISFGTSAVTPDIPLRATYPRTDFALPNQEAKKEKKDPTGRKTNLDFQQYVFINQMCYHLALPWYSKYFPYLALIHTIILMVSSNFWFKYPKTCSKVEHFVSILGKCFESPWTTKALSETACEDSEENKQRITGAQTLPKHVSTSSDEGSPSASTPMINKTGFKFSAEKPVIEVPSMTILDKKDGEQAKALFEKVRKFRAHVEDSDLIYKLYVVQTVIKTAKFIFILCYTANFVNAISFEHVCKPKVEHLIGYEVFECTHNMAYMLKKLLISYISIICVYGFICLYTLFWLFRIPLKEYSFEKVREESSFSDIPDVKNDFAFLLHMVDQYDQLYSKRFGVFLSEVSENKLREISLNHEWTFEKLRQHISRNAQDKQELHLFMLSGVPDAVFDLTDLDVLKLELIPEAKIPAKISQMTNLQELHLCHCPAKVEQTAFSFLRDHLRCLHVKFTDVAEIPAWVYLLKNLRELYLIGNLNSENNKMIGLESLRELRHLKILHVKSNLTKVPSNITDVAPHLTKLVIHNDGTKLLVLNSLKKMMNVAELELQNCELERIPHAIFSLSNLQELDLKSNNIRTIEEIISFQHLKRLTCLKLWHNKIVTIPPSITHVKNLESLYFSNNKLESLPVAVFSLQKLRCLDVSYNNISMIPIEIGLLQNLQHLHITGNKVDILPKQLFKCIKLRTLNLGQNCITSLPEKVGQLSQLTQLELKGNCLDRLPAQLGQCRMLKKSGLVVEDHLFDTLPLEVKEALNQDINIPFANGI
UniProt P36941: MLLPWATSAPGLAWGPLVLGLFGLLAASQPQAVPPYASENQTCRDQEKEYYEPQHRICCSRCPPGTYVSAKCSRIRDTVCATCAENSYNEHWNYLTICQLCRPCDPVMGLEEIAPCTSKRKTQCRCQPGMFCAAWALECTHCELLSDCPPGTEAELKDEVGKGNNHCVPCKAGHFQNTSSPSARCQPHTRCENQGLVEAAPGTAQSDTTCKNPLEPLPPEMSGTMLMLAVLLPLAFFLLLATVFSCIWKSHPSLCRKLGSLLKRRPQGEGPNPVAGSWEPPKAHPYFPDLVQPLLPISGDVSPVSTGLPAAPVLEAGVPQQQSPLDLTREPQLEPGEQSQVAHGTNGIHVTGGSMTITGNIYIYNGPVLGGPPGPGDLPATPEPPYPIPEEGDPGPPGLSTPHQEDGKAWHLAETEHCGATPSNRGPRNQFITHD
UniProt Q8WVR3: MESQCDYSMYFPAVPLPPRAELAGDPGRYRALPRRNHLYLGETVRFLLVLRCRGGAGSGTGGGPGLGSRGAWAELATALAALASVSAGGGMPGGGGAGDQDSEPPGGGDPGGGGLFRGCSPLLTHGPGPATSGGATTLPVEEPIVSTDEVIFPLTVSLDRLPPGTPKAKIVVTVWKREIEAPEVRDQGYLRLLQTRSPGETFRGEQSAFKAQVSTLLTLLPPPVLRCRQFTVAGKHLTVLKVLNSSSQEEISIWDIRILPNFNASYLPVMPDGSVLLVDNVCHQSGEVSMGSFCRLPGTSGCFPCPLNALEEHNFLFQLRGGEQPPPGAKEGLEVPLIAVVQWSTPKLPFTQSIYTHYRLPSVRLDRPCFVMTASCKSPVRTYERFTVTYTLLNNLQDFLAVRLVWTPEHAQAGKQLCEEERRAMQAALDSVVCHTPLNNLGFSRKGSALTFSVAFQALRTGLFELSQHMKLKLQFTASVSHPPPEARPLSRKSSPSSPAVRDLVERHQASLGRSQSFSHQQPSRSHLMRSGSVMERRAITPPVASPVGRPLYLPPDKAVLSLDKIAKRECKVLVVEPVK

ibrutinib = compound: C=CC(=O)N1CCC[C@@H](n2nc(-c3ccc(Oc4ccccc4)cc3)c3c(N)ncnc32)C1 [ibrutinib]
Method in brief: as §1

[1] = compound: CC(=O)c1cnc2ccc(-c3cc(Cl)c(O)c(Cl)c3)nc2c1N[C@H]1CC[C@H](CN(C)C)CC1
Method in brief: as §1

ralimetinib = compound: CC(C)(C)Cn1c(N)nc2ccc(-c3[nH]c(C(C)(C)C)nc3-c3ccc(F)cc3)nc21 [ralimetinib]
Method in brief: as §1

[2] = compound: CC(C)(O)CC(=O)NCCn1ccc2ncnc(Nc3ccc(Oc4cccc(C(F)(F)F)c4)c(Cl)c3)c21
Method in brief: as §1

[3] = compound: CC(C)C1=C2N=C(C=C(N2N=C1)NCC3=CC=CC=C3)NCCCCCCN
Method in brief: as §1

[4] = compound: CC(C)C[C@@H](C=O)NC(=O)[C@H](CC(C)C)NC(=O)[C@H](CC(C)C)NC(=O)OCc1ccccc1
Method in brief: as §1

pinometostat = compound: CC(C)N(C[C@H]1O[C@@H](n2cnc3c(N)ncnc32)[C@H](O)[C@@H]1O)[C@H]1C[C@@H](CCc2nc3cc(C(C)(C)C)ccc3[nH]2)C1 [pinometostat]
Method in brief: as §1

[5] = compound: CC1=C(C(CC(=O)N1)C2=CC=C(C=C2)C(F)(F)F)C(=O)NC3=C(C=C4C(=C3)C=NN4)F
Method in brief: as §1

[6] = compound: CC1=C(C2=C(C=C1)C(=O)C3=CC=CC=C3N2CCCN)C
Method in brief: as §1

[7] = compound: CC1=C(C=C(C=C1)NC(=O)C2=CC(=CC=C2)C(C)(C)C#N)NC3=CC4=C(C=C3)N=CN(C4=O)C
Method in brief: as §1

[8] = compound: CC1=C(C=C(C=C1)NC(=O)C2=CC(=CC=C2)N(C)C)NC(=O)C3=CC=C(C=C3)O
Method in brief: as §1

[9] = compound: CC1=CC=C(C=C1)SC2=C3C=C(SC3=CN=C2)C(=O)N
Method in brief: as §1

[10] = compound: CC1=NC(=CC=C1)C2=C(N=C(N2)C(C)(C)C)C3=CC4=NC=CN=C4C=C3
Method in brief: as §1

Nexturastat A = compound: CCCCN(Cc1ccc(C(=O)NO)cc1)C(=O)Nc1ccccc1 [Nexturastat A]
Method in brief: as §1

vemurafenib = compound: CCCS(=O)(=O)Nc1ccc(F)c(C(=O)c2c[nH]c3ncc(-c4ccc(Cl)cc4)cc23)c1F [vemurafenib]
Method in brief: as §1

[11] = compound: CCCS(=O)(=O)Nc1ccc(F)c(C(=O)c2c[nH]c3ncc(Cl)cc23)c1F
Method in brief: as §1

[12] = compound: CCCc1cc(C)[nH]c(=O)c1CNC(=O)c1cc(-c2ccnc(N3CCN(C)CC3)c2)cc2c1cnn2C(C)C
Method in brief: as §1

givinostat = compound: CCN(CC)Cc1ccc2cc(COC(=O)Nc3ccc(C(=O)NO)cc3)ccc2c1 [givinostat]
Method in brief: as §1

barasertib = compound: CCN(CCCOc1ccc2c(Nc3cc(CC(=O)Nc4cccc(F)c4)[nH]n3)ncnc2c1)CCOP(=O)(O)O [barasertib]
Method in brief: as §1

Row | Target | log2 fold change (IRAK-1-4 Inhibitor I) | log2 fold change (ibrutinib) | log2 fold change [1] | log2 fold change (ralimetinib) | log2 fold change [2] | log2 fold change [3] | log2 fold change [4] | log2 fold change (pinometostat) | log2 fold change [5] | log2 fold change [6] | log2 fold change [7] | log2 fold change [8] | log2 fold change [9] | log2 fold change [10] | log2 fold change (Nexturastat A) | log2 fold change (vemurafenib) | log2 fold change [11] | log2 fold change [12] | log2 fold change (givinostat) | log2 fold change (barasertib)
1 | MACROD1 (UniProt Q9BQ69) | inactive: -0.11 | inactive: 0.029 | inactive: -0.069 | inactive: 0.173 | inactive: -0.221 | inactive: -0.14 | inactive: -0.029 | inactive: -0.019 | inactive: -0.06 | inactive: 0.144 | inactive: 0.059 | inactive: -0.066 | inactive: -0.071 | inactive: 0.071 | inactive: -0.069 | inactive: -0.07 | inactive: 0.114 | inactive: 0.077 | inactive: 0.131 | inactive: 0.16
2 | MAPKAPK5 (UniProt Q8IW41) | inactive: 0.029 | inactive: -0.003 | inactive: 0.052 | inactive: 0.029 | inactive: -0.139 | inactive: 0.218 | inactive: 0.055 | inactive: -0.042 | – | inactive: 0.002 | inactive: 0.004 | inactive: -0.02 | inactive: -0.015 | inactive: 0.013 | inactive: 0.003 | inactive: 0.028 | inactive: 0.11 | inactive: 0.038 | inactive: 0.225 | inactive: -0.03
3 | MAP4K5 (UniProt Q9Y4K4) | inactive: -0.02 | inactive: 0.067 | active: -0.289 | inactive: -0.045 | inactive: -0.057 | inactive: -0.034 | inactive: 0.034 | inactive: -0.014 | – | inactive: -0.02 | inactive: 0.01 | inactive: 0.082 | inactive: 0.025 | inactive: -0.012 | inactive: -0.042 | inactive: -0.025 | inactive: -0.008 | inactive: -0.047 | inactive: -0.024 | inactive: 0.1
4 | LUZP1 (UniProt Q86V48) | inactive: -0.136 | inactive: -0.074 | inactive: 0.275 | inactive: 0.08 | inactive: 0.114 | inactive: 0.019 | inactive: 0.139 | inactive: 0.113 | – | inactive: 0.079 | inactive: -0.128 | inactive: 0.136 | inactive: -0.005 | inactive: -0.182 | inactive: 0.184 | inactive: 0.05 | inactive: -0.091 | inactive: -0.029 | inactive: 0.031 | inactive: -0.062
5 | MAPK8 isoform 3 (UniProt P45983) | inactive: 0.034 | inactive: -0.081 | active: 0.936 | inactive: 0.271 | inactive: -0.071 | inactive: 0.012 | inactive: -0.002 | inactive: 0.05 | – | inactive: -0.1 | inactive: -0.038 | inactive: -0.026 | inactive: -0.015 | inactive: -0.012 | inactive: -0.099 | inactive: 0.027 | inactive: 0.012 | inactive: 0.016 | inactive: 0.119 | inactive: 0.056
6 | MAP3K20 (UniProt Q9NYL2) | inactive: -0.043 | inactive: -0.167 | active: -0.654 | inactive: 0.019 | inactive: -0.032 | inactive: 0.034 | inactive: 0.052 | inactive: 0.099 | – | inactive: 0.027 | active: -0.448 | inactive: -0.098 | inactive: -0.014 | inactive: 0.03 | inactive: 0.062 | inactive: -0.254 | inactive: -0.163 | inactive: 0.022 | inactive: -0.089 | inactive: -0.02
7 | LRRC8D (UniProt Q7L1W4) | inactive: -0.039 | – | inactive: 0.015 | inactive: 0.128 | inactive: 0.03 | inactive: -0.1 | inactive: 0.116 | inactive: 0.09 | inactive: -0.175 | inactive: 0.031 | inactive: -0.078 | inactive: -0.024 | inactive: -0.115 | inactive: -0.09 | inactive: 0.161 | inactive: -0.124 | inactive: 0.101 | inactive: 0.076 | inactive: 0.076 | –
8 | LTBR (UniProt P36941) | inactive: -0.052 | inactive: -0.016 | inactive: -0.038 | inactive: 0.016 | inactive: 0.168 | inactive: 0.177 | inactive: 0.124 | inactive: -0.059 | – | inactive: -0.159 | inactive: -0.012 | inactive: 0.124 | inactive: -0.003 | inactive: 0.059 | inactive: -0.089 | inactive: 0.023 | inactive: -0.049 | – | inactive: 0 | inactive: 0.043
9 | MAP11 (UniProt Q8WVR3) | inactive: 0.042 | inactive: -0.004 | – | – | inactive: -0.013 | inactive: -0.239 | – | inactive: 0.116 | inactive: 0.18 | – | inactive: -0.142 | – | – | inactive: -0.121 | inactive: 0.026 | inactive: -0.048 | – | inactive: 0.046 | inactive: -0.105 | inactive: -0.016

Shown tab-delimited: entries from further up.
Row	Target	log2 fold change (IRAK-1-4 Inhibitor I)	log2 fold change (ibrutinib)	log2 fold change [1]	log2 fold change (ralimetinib)	log2 fold change [2]	log2 fold change [3]	log2 fold change [4]	log2 fold change (pinometostat)	log2 fold change [5]	log2 fold change [6]	log2 fold change [7]	log2 fold change [8]	log2 fold change [9]	log2 fold change [10]	log2 fold change (Nexturastat A)	log2 fold change (vemurafenib)	log2 fold change [11]	log2 fold change [12]	log2 fold change (givinostat)	log2 fold change (barasertib)
4	LUZP1 (UniProt Q86V48)	inactive: -0.136	inactive: -0.074	inactive: 0.275	inactive: 0.08	inactive: 0.114	inactive: 0.019	inactive: 0.139	inactive: 0.113	–	inactive: 0.079	inactive: -0.128	inactive: 0.136	inactive: -0.005	inactive: -0.182	inactive: 0.184	inactive: 0.05	inactive: -0.091	inactive: -0.029	inactive: 0.031	inactive: -0.062
5	MAPK8 isoform 3 (UniProt P45983)	inactive: 0.034	inactive: -0.081	active: 0.936	inactive: 0.271	inactive: -0.071	inactive: 0.012	inactive: -0.002	inactive: 0.05	–	inactive: -0.1	inactive: -0.038	inactive: -0.026	inactive: -0.015	inactive: -0.012	inactive: -0.099	inactive: 0.027	inactive: 0.012	inactive: 0.016	inactive: 0.119	inactive: 0.056

Reference: the supplement of paper PMC10849652
